Measurements published in PubChem BioAssay AID2685 (National Center for Advancing Translational Sciences (NCATS), 2010).
The list shows a part of the results. Further columns of the screen follow, without active or inactive calls. Most of these compounds were active or inconclusive in the main read-out, so they are no random draw. The note in brackets gives the kind of curve behind each potency; many fits are weak.

Test: qHTS Assay for Lipid Storage Modulators in Drosophila S3 Cells;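 on cell number change: cells counted by Cell Tracker Red CMTPX staining in the red channel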
Details: BODIPY lipid droplet fluorescence, 18-24 h; for cell number change: measured here: cell count max response, cells fed with added oleic acid
In short: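 Laser-scanning cytometry quantifies lipid droplet accumulation (500–530 nm total intensity; droplet/cell object ratio) in oleic acid-fed (400 uM added) Drosophila S3 cells treated with a concentration series. 20 uM Triacsin C defined 100% inhibition.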

[1] = measured here: lipid fluorescence (Fed channel) AC50, cells fed with added oleic acid
[2] = measured here: cell number channel AC50, cells fed with added oleic acid

Compound: COc1ccc(-c2nnc(SC(C)C(=O)Nc3nccs3)n2Cc2ccccc2)cc1OC (centres undefined)
- cell number change: 0.849%
- AC50 [1]: 0.731 µM [falling, full curve]

Compound: O=C(Nc1ccc(Cl)cc1)c1cccc(OC(=S)N2CCOCC2)c1
- cell number change: -10.4%
- AC50 [1]: 29.1 µM [falling, single point]

Compound: O=C(CCCN1CCC(O)(c2cccc(C(F)(F)F)c2)CC1)c1ccc(F)cc1
- cell number change: 39%
- AC50 [2]: 29.1 µM [rising, single point]
- AC50 [1]: 29.1 µM [rising, single point]

Compound: CC(C)c1cc2c(c(O)c1O)[C@@]13CCCC(C)(C)C1CC2OC3=O (some centres undefined)
- cell number change: -39.5%
- AC50 [2]: 23.1 µM [falling, single point]
- AC50 [1]: 29.1 µM [falling, single point]

Compound: C=CCn1c(CCNC(=O)c2ccccc2F)nnc1SCc1nc2ccccc2c(=O)[nH]1
- cell number change: 21.2%
- AC50 [1]: 0.517 µM [rising, single point]

Compound: Cc1cc(C)n2nc(C(=O)OCCOc3ccc(F)cc3)nc2n1
- cell number change: 6.5%
- AC50 [1]: 29.1 µM [rising, single point]

Compound: COc1ccccc1NS(=O)(=O)c1cccc(C(=O)N/N=C(\C)c2ccncc2)c1
- cell number change: 25%

Compound: COc1ccc(S(=O)(=O)Nc2ccc(F)cc2)cc1N(C)S(=O)(=O)c1ccc(Cl)cc1
- cell number change: -7.03%

Compound: CC1CCCC(NC(=O)CN(C)S(=O)(=O)c2cccc3cccnc23)C1C (centres undefined)
- cell number change: 34.4%
- AC50 [2]: 18.4 µM [rising, single point]

Compound: Nn1c(Cc2ccccc2F)nnc1SCC(=O)Nc1cccc(S(=O)(=O)NC2=NCCCCC2)c1
- cell number change: -20.7%
- AC50 [2]: 1.46 µM [falling, partial curve, poor fit]
- AC50 [1]: 3.66 µM [falling, single point]

Compound: Cc1ccc(N=Nc2cc(C)ccc2O)c(C)c1
- AC50 [1]: 29.1 µM [falling, single point]

Compound: CCC(=O)Nc1ccc(S(=O)(=O)c2ccc(NC(=O)CC)cc2)cc1
- AC50 [1]: 11.6 µM [falling, partial curve]

Compound: O=C(c1ccccc1)c1ccc(Cn2cc(CCCO)nn2)cc1
- cell number change: -5.5%
- AC50 [1]: 6.51 µM [rising, single point]

Compound: C=CCn1c(C)cc(C(=O)COC(=O)C2CC(=O)N(Cc3ccccc3)C2)c1C (centres undefined)
- cell number change: 2.6%

Compound: Cc1cccc2c(=O)oc(-c3ccccc3Cl)nc12
- cell number change: -11.3%
- AC50 [1]: 16.4 µM [rising, single point]

Compound: [O-][n+]1onc2c1CCc1[nH]c(-c3ccccc3)nc1-2
- cell number change: -25%
- AC50 [1]: 0.411 µM [falling, partial curve, poor fit]

Compound: CN(CC(=O)Nc1ccc(F)c(F)c1F)C(=O)c1ccc2c(c1)NC(=O)CS2
- cell number change: -32.8%
- AC50 [2]: 0.517 µM [falling, full curve]

Compound: COc1ccccc1N1CCN(C(CNS(=O)(=O)c2cccs2)c2cccnc2)CC1 (centres undefined)
- cell number change: 130%
- AC50 [2]: 3.26 µM [rising, partial curve]
- AC50 [1]: 2.06 µM [rising, partial curve]

Compound: O=C(O)c1ccc(NC(=O)c2ccccc2NC(=O)c2cccc(F)c2)cc1
- cell number change: 4.4%

Compound: Cc1cc(C)n(-c2nc(-c3ccccc3)cs2)n1
- cell number change: 20.5%
- AC50 [2]: 2.91 µM [rising, single point]
- AC50 [1]: 9.2 µM [rising, partial curve]

Compound: CCc1cc(C(=O)N2CCCC(C(=O)c3cccc4ccccc34)C2)n(C)n1 (centres undefined)
- cell number change: -3.27%
- AC50 [1]: 29.1 µM [falling, single point]

Compound: Cc1ccc(NC(=O)CSCC(=O)Nc2ccccc2N2CCCC2)cc1
- cell number change: 10.7%
- AC50 [1]: 1.84 µM [rising, partial curve]

Compound: O=C(NCCSc1ccccc1)c1ccccc1Cl
- AC50 [2]: 6.51 µM [rising, partial curve, poor fit]

Compound: O=C(c1ccc(N2CCOCC2)c([N+](=O)[O-])c1)N1CCCCC1
- cell number change: 11%
- AC50 [2]: 0.231 µM [rising, full curve, poor fit]

Compound: CC(=O)NC1=NN(C(C)=O)C(C)(CCS(=O)(=O)c2ccc(Cl)c(Cl)c2)S1 (centres undefined)
- cell number change: -26.3%
- AC50 [2]: 0.206 µM [falling, full curve, poor fit]
- AC50 [1]: 0.461 µM [falling, full curve]

Compound: COc1ccc(NC(=O)C2CCN(S(=O)(=O)c3ccc4c(c3)CC(C)N4C(C)=O)CC2)c(OC)c1 (centres undefined)
- cell number change: 33.1%
- AC50 [2]: 9.2 µM [rising, partial curve]

Compound: CN(C)Cc1ccccc1C1(O)c2ccccc2CSc2ccccc21 (centres undefined)
- cell number change: 42.2%
- AC50 [2]: 29.1 µM [rising, single point]

Compound: Cc1cccc(NC(=O)CC2S/C(=N/c3nccs3)N(C)C2=O)c1 (centres undefined)
- cell number change: -1.61%
- AC50 [1]: 4.61 µM [rising, single point]

Compound: COc1ccc(-c2nc(CN(Cc3cnn(C)c3)C(C)C)c(C)o2)c(OC)c1
- cell number change: 8%
- AC50 [1]: 0.058 µM [falling, full curve]

Compound: CC(=O)c1ccc(OCCCC(=O)N(CCC2=CCCCC2)c2c(N)n(Cc3ccccc3)c(=O)[nH]c2=O)cc1
- cell number change: 33.2%
- AC50 [2]: 20.6 µM [rising, single point]

Compound: CN(Cc1ccc(Cl)cc1)C(=O)c1cc(S(=O)(=O)N2CCOCC2)ccc1N1CCCC1
- AC50 [1]: 3.26 µM [rising, single point]

Compound: COc1ccccc1N1CCN(CCCNc2cc(=O)n(C)c(=O)n2C)CC1
- cell number change: 6.24%
- AC50 [2]: 0.116 µM [rising, full curve, poor fit]

Compound: Cc1ccc(NC(=O)Cn2sc3nc(C)cc(C)c3c2=O)c(Cl)c1
- cell number change: -66.1%
- AC50 [1]: 1.64 µM [falling, partial curve, poor fit]

Compound: COc1ccc(CCNC(=O)C(=O)NCC2OCCN2S(=O)(=O)c2ccc(OC)c(OC)c2)cc1OC (centres undefined)
- cell number change: -2.02%
- AC50 [1]: 6.51 µM [rising, single point]

Compound: O=C(CNC(=O)C1CCCCC1)Nc1ccc(Cl)cc1
- cell number change: -12.2%
- AC50 [1]: 20.6 µM [rising, partial curve]

Compound: Cc1ccc(S(=O)(=O)N2CCCC2C(=O)NCCc2nc3ccccc3[nH]2)cc1 (centres undefined)
- cell number change: -26.9%
- AC50 [1]: 29.1 µM [falling, single point]

Compound: COc1ccc(C(=O)C[n+]2ccc(N(C)C)cc2)cc1
- cell number change: 40.4%
- AC50 [1]: 29.1 µM [rising, single point]

Compound: O=C1NC2(CCCCC2)C(=O)N1c1ccccc1
- AC50 [2]: 0.58 µM [falling, single point]

Compound: COc1ccc(-c2csc(=Nc3ccccc3)n2CCO)cc1
- cell number change: -32.7%
- AC50 [2]: 32.6 µM [falling, single point]
- AC50 [1]: 18.4 µM [falling, single point]

Compound: CC1CC(C)CN(C(=O)c2ccc3c(c2)OCCO3)C1 (centres undefined)
- cell number change: -16.7%

Compound: COc1ccccc1N1C[C@@H]2C[C@@H](c3ccco3)N3CCC[C@@]23C1=O
- cell number change: -16.1%
- AC50 [1]: 5.17 µM [falling, full curve, poor fit]

Compound: O=C(CNC(=O)c1cccc(Br)c1)N/N=C/c1cccs1
- cell number change: 16.1%
- AC50 [1]: 29.1 µM [rising, single point]

Compound: CN(C)Cc1c(C(=O)N/N=C/c2cccc(OCc3c(F)cccc3Cl)c2)nnn1-c1nonc1N
- AC50 [2]: 1.03 µM [falling, partial curve]
- AC50 [1]: 29.1 µM [falling, single point]

Compound: COC(=O)NNC(=O)CCCOc1ccc(Cl)cc1Cl
- AC50 [2]: 1.84 µM [rising, partial curve, poor fit]

Compound: C/C=C(/C)C(=O)O[C@@H]1[C@H](OC(=O)C=C(C)C)c2c(ccc3ccc(=O)oc23)OC1(C)C
- cell number change: 11.6%
- AC50 [1]: 0.00651 µM [falling, full curve, poor fit]

Compound: COc1ccccc1C(=O)O/N=C(/C)c1ccc(N2C(=O)C3CCCCC3C2=O)cc1 (centres undefined)
- cell number change: 8.47%
- AC50 [2]: 6.51 µM [rising, single point]

Compound: COc1cccc(C(C(=O)NC2CCCCC2)N(C(=O)c2cccs2)c2ccc3c(c2)OCO3)c1 (centres undefined)
- cell number change: 19.4%
- AC50 [1]: 7.31 µM [falling, single point]

Compound: O=C(COC(=O)c1cnccn1)NCCc1ccccc1
- cell number change: -35.5%
- AC50 [2]: 29.1 µM [falling, single point]

Compound: CCC1CCC/C1=N\NC(=O)c1cc(C)[nH]n1 (centres undefined)
- cell number change: 41.9%
- AC50 [2]: 18.4 µM [rising, partial curve, poor fit]
- AC50 [1]: 18.4 µM [rising, single point]

Compound: CCCC1CCC(C(=O)Nn2cnc3ccccc3c2=O)CC1 (centres undefined)
- AC50 [1]: 6.51 µM [falling, partial curve, poor fit]

Compound: Cc1ccc(-c2nc(C3CCN(S(C)(=O)=O)CC3)no2)cc1
- cell number change: 12.5%

Compound: CCN(CCCNC(=O)c1cn(CC)c2ccc(S(=O)(=O)N(C)C)cc2c1=O)c1cccc(C)c1
- cell number change: 17.7%
- AC50 [1]: 0.411 µM [rising, full curve]

Compound: OCCC1CN(CC#Cc2ccccc2)CCN1Cc1ccccc1F (centres undefined)
- cell number change: -7.14%

Compound: CCN1CCc2c(sc(NC(=O)Nc3ccc(Cl)c(Cl)c3)c2C(N)=O)C1
- cell number change: -2.09%
- AC50 [1]: 0.517 µM [falling, full curve]

Compound: O=C(CN(Cc1ccc(Cl)cc1)C(=O)CNS(=O)(=O)c1ccc(F)cc1)NCC1CCCO1 (centres undefined)
- cell number change: 2.56%
- AC50 [1]: 0.116 µM [rising, single point]

Compound: COc1ccc([C@@H]2CC=C(C(=O)O)[C@H](c3cccc(Cl)c3)N2S(=O)(=O)c2ccc(Cl)cc2)cc1
- AC50 [1]: 18.4 µM [rising, single point]

Compound: Cc1ccc(C(NC(=O)/C=C\c2ccc3c(c2)OCO3)C(=O)Nc2ccc3c(c2)OCO3)cc1 (centres undefined)
- cell number change: -51.2%
- AC50 [2]: 20.6 µM [falling, single point]
- AC50 [1]: 2.91 µM [falling, partial curve]

Compound: CCc1c(C)sc(NC(=O)c2cc(C)no2)c1C#N
- AC50 [2]: 4.11 µM [falling, single point]
